Measurements: paper PMC3639846
No constants are given. Whether binding was seen depends on the method and setting. In cells and extracts the contact can be indirect. Some binding calls cover weakened binding; strength is not graded here.

Protein sequences, listed by entry. Tags and fused reporters are not part of them. Lines headed by an entry give the natural chain unless they say otherwise; changes in a name come on top. Chains listed by the source or under a name are the forms on record and can include a tag or linker.
UniProt Q9BVC4: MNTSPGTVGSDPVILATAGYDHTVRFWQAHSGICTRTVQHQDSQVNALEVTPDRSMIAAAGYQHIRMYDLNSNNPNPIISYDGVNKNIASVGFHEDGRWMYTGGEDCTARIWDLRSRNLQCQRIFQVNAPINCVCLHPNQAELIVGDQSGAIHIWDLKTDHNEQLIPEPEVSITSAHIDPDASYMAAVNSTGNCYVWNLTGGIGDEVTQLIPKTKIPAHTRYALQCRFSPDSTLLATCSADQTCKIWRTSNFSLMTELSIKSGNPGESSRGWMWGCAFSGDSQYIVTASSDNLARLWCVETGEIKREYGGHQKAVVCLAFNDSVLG
FLAG-tagged mLST8 mutant replacing Ala182 by Asp (Q9BVC4, form named): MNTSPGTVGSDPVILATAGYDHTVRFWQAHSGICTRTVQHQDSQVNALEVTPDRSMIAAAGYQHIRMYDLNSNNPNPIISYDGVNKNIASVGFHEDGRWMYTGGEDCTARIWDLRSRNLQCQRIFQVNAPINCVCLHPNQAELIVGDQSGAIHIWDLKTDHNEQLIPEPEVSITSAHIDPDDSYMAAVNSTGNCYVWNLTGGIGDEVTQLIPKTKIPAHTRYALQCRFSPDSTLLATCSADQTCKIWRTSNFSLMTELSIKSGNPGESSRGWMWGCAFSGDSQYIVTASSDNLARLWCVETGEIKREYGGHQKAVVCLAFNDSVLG
FLAG-tagged mLST8 mutant replacing Gly150 by Asp (Q9BVC4, form named): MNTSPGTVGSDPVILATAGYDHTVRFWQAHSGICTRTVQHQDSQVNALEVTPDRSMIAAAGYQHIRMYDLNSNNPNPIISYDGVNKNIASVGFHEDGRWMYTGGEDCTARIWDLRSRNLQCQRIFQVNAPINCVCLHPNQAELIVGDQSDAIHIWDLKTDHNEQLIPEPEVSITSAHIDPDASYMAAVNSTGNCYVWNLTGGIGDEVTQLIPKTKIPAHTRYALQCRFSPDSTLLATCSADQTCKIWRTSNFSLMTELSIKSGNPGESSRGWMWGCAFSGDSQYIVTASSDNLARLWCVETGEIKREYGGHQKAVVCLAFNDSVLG
FLAG-tagged mLST8 mutant replacing Gly192 by Asp (Q9BVC4, form named): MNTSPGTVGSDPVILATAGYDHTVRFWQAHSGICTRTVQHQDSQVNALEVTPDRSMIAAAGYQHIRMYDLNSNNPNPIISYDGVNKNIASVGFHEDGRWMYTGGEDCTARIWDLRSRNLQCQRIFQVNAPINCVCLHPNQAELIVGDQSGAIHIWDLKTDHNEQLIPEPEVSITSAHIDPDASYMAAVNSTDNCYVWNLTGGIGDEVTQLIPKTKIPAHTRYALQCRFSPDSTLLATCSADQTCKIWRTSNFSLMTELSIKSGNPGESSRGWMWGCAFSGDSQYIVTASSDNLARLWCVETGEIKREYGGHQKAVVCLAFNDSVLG
FLAG-tagged mLST8 mutant replacing Phe320 by Ser (Q9BVC4, form named): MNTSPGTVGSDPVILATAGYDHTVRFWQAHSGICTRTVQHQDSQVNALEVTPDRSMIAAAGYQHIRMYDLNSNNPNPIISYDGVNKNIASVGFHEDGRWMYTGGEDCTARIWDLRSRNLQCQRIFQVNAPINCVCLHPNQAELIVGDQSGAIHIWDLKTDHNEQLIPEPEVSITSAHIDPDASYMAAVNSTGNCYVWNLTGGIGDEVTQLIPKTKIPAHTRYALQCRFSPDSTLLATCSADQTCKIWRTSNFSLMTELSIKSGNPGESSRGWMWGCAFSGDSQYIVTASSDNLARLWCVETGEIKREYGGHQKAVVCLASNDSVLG
UniProt P27708: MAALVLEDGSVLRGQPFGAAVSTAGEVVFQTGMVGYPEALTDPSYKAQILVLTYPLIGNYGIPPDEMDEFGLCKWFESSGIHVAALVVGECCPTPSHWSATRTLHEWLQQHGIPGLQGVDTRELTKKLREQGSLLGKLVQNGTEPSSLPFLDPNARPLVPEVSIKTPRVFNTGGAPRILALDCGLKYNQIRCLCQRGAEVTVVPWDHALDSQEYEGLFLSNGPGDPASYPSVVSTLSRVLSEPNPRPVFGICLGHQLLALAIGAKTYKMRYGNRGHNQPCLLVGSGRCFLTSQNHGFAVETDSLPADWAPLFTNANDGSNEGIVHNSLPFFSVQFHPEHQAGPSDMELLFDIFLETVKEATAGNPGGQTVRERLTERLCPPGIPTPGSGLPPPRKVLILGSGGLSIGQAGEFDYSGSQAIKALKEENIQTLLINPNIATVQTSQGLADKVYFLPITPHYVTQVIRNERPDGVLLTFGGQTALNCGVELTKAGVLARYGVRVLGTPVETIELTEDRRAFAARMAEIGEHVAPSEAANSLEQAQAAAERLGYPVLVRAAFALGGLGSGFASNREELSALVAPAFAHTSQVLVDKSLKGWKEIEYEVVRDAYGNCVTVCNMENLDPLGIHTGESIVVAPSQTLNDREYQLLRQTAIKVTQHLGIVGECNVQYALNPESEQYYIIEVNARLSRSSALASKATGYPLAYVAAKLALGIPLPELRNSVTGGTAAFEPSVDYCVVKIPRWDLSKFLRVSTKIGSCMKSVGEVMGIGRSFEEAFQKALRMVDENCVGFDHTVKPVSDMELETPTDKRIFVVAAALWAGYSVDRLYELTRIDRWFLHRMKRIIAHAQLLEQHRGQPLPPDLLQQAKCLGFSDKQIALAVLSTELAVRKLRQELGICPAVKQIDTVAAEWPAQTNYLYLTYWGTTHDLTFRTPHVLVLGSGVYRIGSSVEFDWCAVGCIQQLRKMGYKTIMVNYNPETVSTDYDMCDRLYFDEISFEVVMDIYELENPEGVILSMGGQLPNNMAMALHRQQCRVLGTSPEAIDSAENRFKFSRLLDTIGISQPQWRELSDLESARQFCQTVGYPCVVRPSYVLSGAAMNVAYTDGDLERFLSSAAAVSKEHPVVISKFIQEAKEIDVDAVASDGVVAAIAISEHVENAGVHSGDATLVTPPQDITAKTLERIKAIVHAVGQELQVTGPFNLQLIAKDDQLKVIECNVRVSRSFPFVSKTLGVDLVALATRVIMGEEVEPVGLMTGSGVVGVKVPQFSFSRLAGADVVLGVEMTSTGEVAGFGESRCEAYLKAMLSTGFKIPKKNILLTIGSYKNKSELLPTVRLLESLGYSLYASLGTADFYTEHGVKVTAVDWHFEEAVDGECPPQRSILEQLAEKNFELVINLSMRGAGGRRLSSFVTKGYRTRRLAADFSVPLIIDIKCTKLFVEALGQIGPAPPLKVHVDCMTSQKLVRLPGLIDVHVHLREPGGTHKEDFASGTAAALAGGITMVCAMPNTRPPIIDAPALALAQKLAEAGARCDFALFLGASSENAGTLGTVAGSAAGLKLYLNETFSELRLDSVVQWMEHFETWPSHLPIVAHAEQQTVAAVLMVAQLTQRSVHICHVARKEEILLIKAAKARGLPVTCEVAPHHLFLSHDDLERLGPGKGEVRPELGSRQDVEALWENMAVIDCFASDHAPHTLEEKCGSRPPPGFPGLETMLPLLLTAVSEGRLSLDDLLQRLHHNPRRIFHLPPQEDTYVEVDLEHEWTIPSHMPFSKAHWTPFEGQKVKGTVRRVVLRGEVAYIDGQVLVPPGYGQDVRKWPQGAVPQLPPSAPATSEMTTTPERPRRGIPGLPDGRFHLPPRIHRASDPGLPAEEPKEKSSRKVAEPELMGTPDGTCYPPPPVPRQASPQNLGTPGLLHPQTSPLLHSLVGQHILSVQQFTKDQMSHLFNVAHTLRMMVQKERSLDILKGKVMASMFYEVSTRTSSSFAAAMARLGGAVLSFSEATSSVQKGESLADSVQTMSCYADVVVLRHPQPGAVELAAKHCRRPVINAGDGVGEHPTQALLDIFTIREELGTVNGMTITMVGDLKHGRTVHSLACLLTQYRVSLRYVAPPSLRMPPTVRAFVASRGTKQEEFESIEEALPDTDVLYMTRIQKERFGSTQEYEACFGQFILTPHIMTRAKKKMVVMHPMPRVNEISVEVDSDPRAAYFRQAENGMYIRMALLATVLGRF

Columns and labels:
Experiment in all cases: co-IP; HEK293 cell extracts in Buffer A (20 mM Tris-HCl pH 7.5, 120 mM NaCl, 1 mM EDTA, 5 mM EGTA, 20 mM β-glycerophosphate, 0.3% CHAPS, 1 mM dithiothreitol), 0-4°C, 2 h with Protein G-Sepharose coupled with each antibody, washed three times with Buffer A; immunoblot
[1] = target: FLAG-tagged mLST8 mutant replacing Ala182 by Asp (UniProt Q9BVC4)
[2] = target: FLAG-tagged mLST8 mutant replacing Gly150 by Asp (UniProt Q9BVC4)
[3] = target: FLAG-tagged mLST8 mutant replacing Gly192 by Asp (UniProt Q9BVC4)
[4] = target: FLAG-tagged mLST8 mutant replacing Phe320 by Ser (UniProt Q9BVC4)
[5] = target: FLAG-tagged wild type mLST8 (UniProt Q9BVC4)
[6] = target: endogenous mLST8 of HEK293 cells (human (endogenous in HEK293)) (UniProt Q9BVC4)

Measured: binding

myc-epitope tagged CAD, full length (from UniProt B2RQC6-1 1-2225)
not listed: [6]
binds: all other assays above

CAD, endogenously expressed in HEK293 cells (from UniProt P27708 1-2225)
binds: [5] | [6]
